Laboratory results as given in the supplement of paper PMC12823440, “Inhibitors supercharge kinase turnover through native proteolytic circuits” (Nature, 2025).
Where a name gives a salt, the structure may show the parent alone. The list shows a part of the results. Hit calls seldom repeat between salt and free forms of one compound.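 Kinases were expressed as nanoluciferase fusions in K562 cells and luminescence was read every 4 h between 2 and 18 h as percent of control, DMSO set to 100% and a positive control to 0%. A time point counts as decreased when the signal drops significantly (2 sigma). The hit call is the authors' own, does not follow from the count of time points alone, and its rule is not shown.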

The chains behind the UniProt entries cited, without tags or fusion partners. Where a name states a change or a piece, a line headed by the entry shows the natural chain unless it says otherwise.
UniProt O75460: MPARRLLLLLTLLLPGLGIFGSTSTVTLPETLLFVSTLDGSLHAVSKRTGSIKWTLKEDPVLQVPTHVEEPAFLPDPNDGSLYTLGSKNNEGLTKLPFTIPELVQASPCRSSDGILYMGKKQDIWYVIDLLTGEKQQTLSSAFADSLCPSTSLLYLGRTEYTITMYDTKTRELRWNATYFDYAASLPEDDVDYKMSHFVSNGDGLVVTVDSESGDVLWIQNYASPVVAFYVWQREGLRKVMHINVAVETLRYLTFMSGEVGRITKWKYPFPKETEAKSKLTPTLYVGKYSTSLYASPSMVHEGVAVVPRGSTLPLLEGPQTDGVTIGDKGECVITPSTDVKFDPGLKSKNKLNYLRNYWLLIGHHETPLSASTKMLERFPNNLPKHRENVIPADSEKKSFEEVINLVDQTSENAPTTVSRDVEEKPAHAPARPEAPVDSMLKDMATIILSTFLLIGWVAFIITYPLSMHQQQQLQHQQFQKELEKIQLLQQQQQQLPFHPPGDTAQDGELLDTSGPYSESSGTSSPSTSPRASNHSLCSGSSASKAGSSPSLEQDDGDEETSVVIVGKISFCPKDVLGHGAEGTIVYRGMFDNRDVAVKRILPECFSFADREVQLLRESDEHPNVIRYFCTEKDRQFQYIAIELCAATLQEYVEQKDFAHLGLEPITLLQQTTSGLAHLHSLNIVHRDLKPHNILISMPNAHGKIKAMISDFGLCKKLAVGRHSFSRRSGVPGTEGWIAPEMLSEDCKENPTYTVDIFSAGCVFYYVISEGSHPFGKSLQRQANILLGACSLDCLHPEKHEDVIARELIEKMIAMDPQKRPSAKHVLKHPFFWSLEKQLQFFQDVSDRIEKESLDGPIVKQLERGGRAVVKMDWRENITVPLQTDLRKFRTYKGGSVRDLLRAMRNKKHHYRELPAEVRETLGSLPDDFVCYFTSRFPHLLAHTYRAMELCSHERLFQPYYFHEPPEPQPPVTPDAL
UniProt P11362, whole entry, looked up: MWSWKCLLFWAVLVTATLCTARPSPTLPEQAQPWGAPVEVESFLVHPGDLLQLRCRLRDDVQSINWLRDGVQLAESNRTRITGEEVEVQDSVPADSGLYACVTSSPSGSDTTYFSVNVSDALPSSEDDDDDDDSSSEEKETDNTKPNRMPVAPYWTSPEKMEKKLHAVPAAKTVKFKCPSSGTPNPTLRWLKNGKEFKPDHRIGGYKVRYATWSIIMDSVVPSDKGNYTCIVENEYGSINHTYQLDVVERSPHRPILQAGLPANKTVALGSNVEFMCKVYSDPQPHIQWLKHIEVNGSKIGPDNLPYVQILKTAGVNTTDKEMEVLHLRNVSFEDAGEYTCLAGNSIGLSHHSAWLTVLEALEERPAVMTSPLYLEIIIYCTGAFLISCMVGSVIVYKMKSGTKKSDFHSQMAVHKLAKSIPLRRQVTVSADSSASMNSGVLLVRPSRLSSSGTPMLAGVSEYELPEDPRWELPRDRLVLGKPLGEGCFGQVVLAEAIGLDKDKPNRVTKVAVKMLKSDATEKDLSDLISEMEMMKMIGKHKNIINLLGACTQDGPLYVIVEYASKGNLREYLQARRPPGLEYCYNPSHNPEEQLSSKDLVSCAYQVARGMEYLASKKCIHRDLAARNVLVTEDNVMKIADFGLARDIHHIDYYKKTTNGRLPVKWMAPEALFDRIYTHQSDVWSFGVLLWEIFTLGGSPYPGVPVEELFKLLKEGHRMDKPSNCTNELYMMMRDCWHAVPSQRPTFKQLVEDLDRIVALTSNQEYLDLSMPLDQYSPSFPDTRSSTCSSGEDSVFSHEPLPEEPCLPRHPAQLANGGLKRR
UniProt P21802, whole entry, looked up: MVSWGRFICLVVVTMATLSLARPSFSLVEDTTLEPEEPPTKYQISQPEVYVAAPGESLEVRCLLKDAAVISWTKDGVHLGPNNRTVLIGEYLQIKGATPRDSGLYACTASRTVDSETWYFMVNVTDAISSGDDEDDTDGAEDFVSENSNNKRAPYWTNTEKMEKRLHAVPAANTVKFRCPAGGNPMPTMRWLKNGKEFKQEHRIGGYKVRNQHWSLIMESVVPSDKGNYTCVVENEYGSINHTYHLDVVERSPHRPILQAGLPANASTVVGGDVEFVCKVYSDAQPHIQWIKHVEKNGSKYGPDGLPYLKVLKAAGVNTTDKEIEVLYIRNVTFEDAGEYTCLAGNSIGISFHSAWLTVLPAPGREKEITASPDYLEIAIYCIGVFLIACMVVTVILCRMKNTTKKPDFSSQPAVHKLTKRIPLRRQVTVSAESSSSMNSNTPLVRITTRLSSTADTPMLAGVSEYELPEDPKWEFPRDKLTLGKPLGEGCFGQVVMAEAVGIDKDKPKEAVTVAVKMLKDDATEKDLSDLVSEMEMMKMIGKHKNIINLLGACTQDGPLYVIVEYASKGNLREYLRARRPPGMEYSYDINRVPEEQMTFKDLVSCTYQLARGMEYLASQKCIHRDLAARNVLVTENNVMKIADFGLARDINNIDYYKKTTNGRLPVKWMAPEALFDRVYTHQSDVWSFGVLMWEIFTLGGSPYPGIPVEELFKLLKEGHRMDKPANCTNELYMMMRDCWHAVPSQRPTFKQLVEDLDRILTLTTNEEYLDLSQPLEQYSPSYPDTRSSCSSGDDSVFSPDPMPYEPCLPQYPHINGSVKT
UniProt P22607, whole entry, looked up: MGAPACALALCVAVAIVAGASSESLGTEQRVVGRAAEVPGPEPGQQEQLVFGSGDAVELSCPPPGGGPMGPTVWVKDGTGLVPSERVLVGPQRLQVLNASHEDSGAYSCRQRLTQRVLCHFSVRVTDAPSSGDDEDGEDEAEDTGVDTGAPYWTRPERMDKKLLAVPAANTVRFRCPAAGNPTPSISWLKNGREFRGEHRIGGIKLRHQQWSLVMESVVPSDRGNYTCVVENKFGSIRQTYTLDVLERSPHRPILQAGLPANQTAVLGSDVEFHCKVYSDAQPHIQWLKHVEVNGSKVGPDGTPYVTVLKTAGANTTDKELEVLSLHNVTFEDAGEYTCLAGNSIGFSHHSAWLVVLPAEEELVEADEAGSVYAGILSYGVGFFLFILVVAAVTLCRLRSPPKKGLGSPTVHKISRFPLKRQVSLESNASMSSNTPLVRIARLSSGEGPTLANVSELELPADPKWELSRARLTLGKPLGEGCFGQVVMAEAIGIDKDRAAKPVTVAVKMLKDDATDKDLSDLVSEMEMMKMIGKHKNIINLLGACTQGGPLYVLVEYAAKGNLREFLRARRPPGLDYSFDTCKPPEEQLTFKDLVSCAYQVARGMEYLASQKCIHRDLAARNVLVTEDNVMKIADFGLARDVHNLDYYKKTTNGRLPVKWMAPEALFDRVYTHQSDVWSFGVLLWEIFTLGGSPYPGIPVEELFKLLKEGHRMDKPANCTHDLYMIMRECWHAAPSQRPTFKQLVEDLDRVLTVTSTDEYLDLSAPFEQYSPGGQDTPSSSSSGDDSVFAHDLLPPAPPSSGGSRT
UniProt P36888, whole entry: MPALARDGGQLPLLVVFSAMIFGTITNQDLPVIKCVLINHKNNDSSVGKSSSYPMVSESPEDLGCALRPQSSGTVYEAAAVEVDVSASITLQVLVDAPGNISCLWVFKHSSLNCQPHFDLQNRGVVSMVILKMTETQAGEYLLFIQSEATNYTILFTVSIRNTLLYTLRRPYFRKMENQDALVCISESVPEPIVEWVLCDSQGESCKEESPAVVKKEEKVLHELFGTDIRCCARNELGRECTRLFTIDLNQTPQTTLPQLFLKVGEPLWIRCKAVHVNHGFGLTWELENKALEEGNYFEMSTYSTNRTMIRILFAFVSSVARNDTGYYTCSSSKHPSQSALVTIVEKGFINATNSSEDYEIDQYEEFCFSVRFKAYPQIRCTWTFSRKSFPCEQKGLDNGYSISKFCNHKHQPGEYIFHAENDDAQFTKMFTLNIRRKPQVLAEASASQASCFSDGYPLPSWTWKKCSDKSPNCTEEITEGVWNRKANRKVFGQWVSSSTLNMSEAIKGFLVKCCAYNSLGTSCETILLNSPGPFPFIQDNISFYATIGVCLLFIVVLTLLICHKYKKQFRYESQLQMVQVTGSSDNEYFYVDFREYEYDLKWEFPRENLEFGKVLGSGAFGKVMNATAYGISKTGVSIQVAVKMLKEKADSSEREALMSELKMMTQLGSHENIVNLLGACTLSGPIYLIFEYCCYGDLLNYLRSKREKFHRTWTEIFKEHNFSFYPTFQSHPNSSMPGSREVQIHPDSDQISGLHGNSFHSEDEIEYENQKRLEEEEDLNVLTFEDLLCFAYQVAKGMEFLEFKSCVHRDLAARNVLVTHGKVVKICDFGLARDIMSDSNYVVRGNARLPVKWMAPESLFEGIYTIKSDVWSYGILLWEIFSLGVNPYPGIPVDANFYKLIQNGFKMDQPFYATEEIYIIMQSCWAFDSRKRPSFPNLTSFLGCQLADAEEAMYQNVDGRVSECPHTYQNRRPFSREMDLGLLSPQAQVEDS
UniProt P06241, whole entry, looked up: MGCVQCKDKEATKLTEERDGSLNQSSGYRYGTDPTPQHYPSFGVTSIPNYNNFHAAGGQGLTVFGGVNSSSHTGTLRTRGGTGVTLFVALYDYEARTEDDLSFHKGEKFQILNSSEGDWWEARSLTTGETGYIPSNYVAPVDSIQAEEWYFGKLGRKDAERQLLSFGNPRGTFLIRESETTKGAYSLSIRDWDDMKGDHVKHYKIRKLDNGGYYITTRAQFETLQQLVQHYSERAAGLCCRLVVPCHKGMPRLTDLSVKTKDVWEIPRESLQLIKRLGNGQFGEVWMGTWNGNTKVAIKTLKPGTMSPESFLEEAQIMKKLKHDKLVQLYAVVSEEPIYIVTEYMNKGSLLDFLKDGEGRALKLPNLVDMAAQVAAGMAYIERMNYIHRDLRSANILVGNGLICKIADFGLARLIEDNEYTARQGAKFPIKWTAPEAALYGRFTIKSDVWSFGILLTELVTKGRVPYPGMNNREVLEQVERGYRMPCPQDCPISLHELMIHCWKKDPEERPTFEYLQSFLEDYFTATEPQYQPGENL
UniProt P49840: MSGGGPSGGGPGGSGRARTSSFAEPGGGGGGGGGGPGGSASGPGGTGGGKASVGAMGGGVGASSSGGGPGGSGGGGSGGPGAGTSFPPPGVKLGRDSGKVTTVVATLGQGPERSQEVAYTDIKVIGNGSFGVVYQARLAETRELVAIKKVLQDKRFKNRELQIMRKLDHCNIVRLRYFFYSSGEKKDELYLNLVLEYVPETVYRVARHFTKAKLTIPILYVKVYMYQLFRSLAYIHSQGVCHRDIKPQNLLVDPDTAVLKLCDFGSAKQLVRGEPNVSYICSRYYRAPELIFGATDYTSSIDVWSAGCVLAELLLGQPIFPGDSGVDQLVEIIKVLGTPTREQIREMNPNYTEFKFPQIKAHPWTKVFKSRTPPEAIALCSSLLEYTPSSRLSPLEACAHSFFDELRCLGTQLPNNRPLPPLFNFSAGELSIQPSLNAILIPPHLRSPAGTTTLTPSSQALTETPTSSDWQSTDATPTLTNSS

What was measured:
Assay in all cases: kinase-Nluc reporter destabilization hit call (1 = scored as downregulated) (binary); higher = compound decreases kinase abundance
Conditions in all cases: K562; 2-18 h
ERN1 = ERN1 (UniProt O75460)
FGFR1 = FGFR1 (UniProt P11362)
FGFR2 = FGFR2 (UniProt P21802)
FGFR3 = FGFR3 (UniProt P22607)
FGR = FGR (UniProt P09769)
FLT3 = FLT3 (UniProt P36888)
FYN = FYN (UniProt P06241)
GSK3A = GSK3A (UniProt P49840)
HER2 = HER2 (UniProt P04626)
INSRR = INSRR (UniProt P14616)

SMILES | kinase-Nluc reporter destabilization hit call (ERN1) | kinase-Nluc reporter destabilization hit call (FGFR1) | kinase-Nluc reporter destabilization hit call (FGFR2) | kinase-Nluc reporter destabilization hit call (FGFR3) | kinase-Nluc reporter destabilization hit call (FGR) | kinase-Nluc reporter destabilization hit call (FLT3) | kinase-Nluc reporter destabilization hit call (FYN) | kinase-Nluc reporter destabilization hit call (GSK3A) | kinase-Nluc reporter destabilization hit call (HER2) | kinase-Nluc reporter destabilization hit call (INSRR)
CC(C)C(=O)Nc1ncc(-c2cc(C(F)F)nn2-c2c(Cl)cccc2Cl)s1 (10 µM) | inactive: 0 | inactive: 0 | inactive: 0 | inactive: 0 | inactive: 0 | inactive: 0 | inactive: 0 | inactive: 0 | active: 1 | inactive: 0
O=C1NC(=NCc2cccs2)S/C1=C\c1ccc2ncccc2c1 (10 µM) | inactive: 0 | inactive: 0 | inactive: 0 | inactive: 0 | inactive: 0 | inactive: 0 | inactive: 0 | inactive: 0 | inactive: 0 | inactive: 0
CN1CCN(C2CCN(C(=O)Nc3cc(Oc4ccc(NC(=O)C5(C(=O)Nc6ccc(F)cc6)CC5)c(F)c4)ccn3)CC2)CC1 [Golvatinib] (2.5 µM) | inactive: 0 | inactive: 0 | inactive: 0 | inactive: 0 | inactive: 0 | inactive: 0 | inactive: 0 | inactive: 0 | inactive: 0 | inactive: 0
O=C(O)CCNC(=O)c1ccc(/N=N/c2ccc(O)c(C(=O)O)c2)cc1 [Balsalazide] (10 µM) | inactive: 0 | inactive: 0 | inactive: 0 | inactive: 0 | inactive: 0 | inactive: 0 | inactive: 0 | inactive: 0 | inactive: 0 | inactive: 0
O=C(c1ccc(-c2ccc(Cl)cc2)o1)N(Cc1ccccn1)c1ccc(N2CCNCC2)cc1 [MK2-IN-1 (hydrochloride)] (10 µM) | inactive: 0 | inactive: 0 | inactive: 0 | inactive: 0 | inactive: 0 | inactive: 0 | inactive: 0 | inactive: 0 | inactive: 0 | inactive: 0
CC(C)c1ccc2oc3nc(N)c(C(=O)O)cc3c(=O)c2c1 [Amlexanox] (10 µM) | inactive: 0 | inactive: 0 | inactive: 0 | inactive: 0 | inactive: 0 | inactive: 0 | inactive: 0 | inactive: 0 | inactive: 0 | inactive: 0
O=S(=O)(NCCNC/C=C/c1ccc(Br)cc1)c1cccc2cnccc12 [H-89 (dihydrochloride)] (10 µM) | inactive: 0 | inactive: 0 | inactive: 0 | inactive: 0 | inactive: 0 | inactive: 0 | inactive: 0 | inactive: 0 | inactive: 0 | inactive: 0
CN(c1ncccc1CNc1nc(Nc2ccc3c(c2)CC(=O)N3)ncc1C(F)(F)F)S(C)(=O)=O (2.5 µM) | inactive: 0 | inactive: 0 | inactive: 0 | inactive: 0 | inactive: 0 | inactive: 0 | inactive: 0 | inactive: 0 | inactive: 0 | inactive: 0
O=C(NOC[C@H](O)CO)c1ccc(F)c(F)c1Nc1ccc(I)cc1F (2.5 µM) | inactive: 0 | inactive: 0 | inactive: 0 | inactive: 0 | inactive: 0 | inactive: 0 | inactive: 0 | inactive: 0 | inactive: 0 | inactive: 0
COc1ccc(F)c(F)c1C(=O)c1cnc(NC2CCN(S(C)(=O)=O)CC2)nc1N (2.5 µM) | inactive: 0 | inactive: 0 | inactive: 0 | inactive: 0 | inactive: 0 | inactive: 0 | inactive: 0 | inactive: 0 | inactive: 0 | inactive: 0
COc1ccc2c(NC(=O)Nc3cccc(C(F)(F)F)n3)ccnc2c1 (10 µM) | inactive: 0 | inactive: 0 | inactive: 0 | inactive: 0 | inactive: 0 | inactive: 0 | inactive: 0 | inactive: 0 | inactive: 0 | inactive: 0
COCCOc1cc2nccc(Nc3n[nH]c(C)c3C)c2cc1S(=O)(=O)C(C)(C)C [RIP2 kinase inhibitor 2] (2.5 µM) | inactive: 0 | inactive: 0 | inactive: 0 | inactive: 0 | inactive: 0 | inactive: 0 | inactive: 0 | inactive: 0 | inactive: 0 | inactive: 0
CC(C)CC(=O)Nc1n[nH]c2c1CN(C(=O)C1CCN(C)CC1)C2(C)C (2.5 µM) | inactive: 0 | inactive: 0 | inactive: 0 | inactive: 0 | inactive: 0 | inactive: 0 | inactive: 0 | inactive: 0 | inactive: 0 | inactive: 0
CNC(=O)c1cccc(-c2ccc3c(N4CCOC[C@@H]4C)nc(N4CCOC[C@@H]4C)nc3n2)c1 [Vistusertib] (2.5 µM) | inactive: 0 | active: 1 | inactive: 0 | inactive: 0 | inactive: 0 | inactive: 0 | inactive: 0 | inactive: 0 | inactive: 0 | inactive: 0
CCOc1ccn(-c2ccc(F)cc2)c(=O)c1C(=O)Nc1ccc(Oc2ccnc(N)c2Cl)c(F)c1 (10 µM) | inactive: 0 | inactive: 0 | inactive: 0 | inactive: 0 | inactive: 0 | inactive: 0 | inactive: 0 | inactive: 0 | inactive: 0 | active: 1
CC(C)n1cnc2c(NCc3cccc(C(F)(F)F)c3)ncnc21 [Longdaysin] (10 µM) | inactive: 0 | inactive: 0 | inactive: 0 | inactive: 0 | inactive: 0 | inactive: 0 | inactive: 0 | inactive: 0 | inactive: 0 | inactive: 0
Nc1nc(N)c(N=O)c(OCC2CCCCC2)n1 (10 µM) | inactive: 0 | inactive: 0 | inactive: 0 | inactive: 0 | inactive: 0 | inactive: 0 | inactive: 0 | inactive: 0 | inactive: 0 | inactive: 0
O=c1c(O)c(-c2ccc(O)c(O)c2)oc2cc(O)cc(O)c12 [Quercetin (dihydrate)] (10 µM) | inactive: 0 | inactive: 0 | inactive: 0 | inactive: 0 | inactive: 0 | inactive: 0 | inactive: 0 | inactive: 0 | inactive: 0 | inactive: 0
COc1cc2ncnc(Nc3ccc(O)cc3)c2cc1OC (10 µM) | inactive: 0 | inactive: 0 | inactive: 0 | inactive: 0 | inactive: 0 | inactive: 0 | inactive: 0 | inactive: 0 | inactive: 0 | inactive: 0
CNC(=O)c1ccccc1Nc1nc(Nc2ccc(N3CCOCC3)cc2OC)ncc1Cl (2.5 µM) | inactive: 0 | inactive: 0 | inactive: 0 | inactive: 0 | inactive: 0 | inactive: 0 | inactive: 0 | inactive: 0 | inactive: 0 | inactive: 0
CCc1nc(-c2cccc(C)c2)c(-c2ccnc(NC(=O)c3ccccc3)c2)s1 (10 µM) | inactive: 0 | inactive: 0 | inactive: 0 | inactive: 0 | inactive: 0 | inactive: 0 | inactive: 0 | inactive: 0 | inactive: 0 | inactive: 0
Cc1cc(F)c(C(=O)Nc2cccc(-c3nncn3C(C)C)n2)cc1-n1cnc(C2CC2)c1 [Selonsertib] (10 µM) | inactive: 0 | inactive: 0 | inactive: 0 | inactive: 0 | inactive: 0 | inactive: 0 | inactive: 0 | inactive: 0 | inactive: 0 | inactive: 0
CCOc1cc2ncc(-c3cc(N)nc(F)c3)n2cc1S(=O)(=O)C(C)(C)C (10 µM) | inactive: 0 | inactive: 0 | inactive: 0 | inactive: 0 | inactive: 0 | inactive: 0 | inactive: 0 | inactive: 0 | inactive: 0 | inactive: 0
Cc1[nH]c(/C=C2\C(=O)Nc3ccc(S(=O)(=O)Cc4c(Cl)cccc4Cl)cc32)c(C)c1C(=O)N1CCC[C@@H]1CN1CCCC1 (2.5 µM) | inactive: 0 | inactive: 0 | inactive: 0 | inactive: 0 | inactive: 0 | inactive: 0 | inactive: 0 | inactive: 0 | inactive: 0 | inactive: 0
NC(=O)c1ccc(-c2nc(-c3ccccn3)c(-c3ccc4c(c3)OCO4)[nH]2)cc1 (10 µM) | inactive: 0 | inactive: 0 | inactive: 0 | inactive: 0 | inactive: 0 | inactive: 0 | inactive: 0 | inactive: 0 | inactive: 0 | inactive: 0
O=C1Cc2c([nH]c3ccc(Br)cc23)-c2ncccc2N1 [1-Azakenpaullone] (10 µM) | inactive: 0 | inactive: 0 | inactive: 0 | inactive: 0 | inactive: 0 | inactive: 0 | inactive: 0 | inactive: 0 | inactive: 0 | inactive: 0
CC(C)c1cnn2c(NCc3ccccc3)cc(NC[C@H]3CCNC[C@@H]3O)nc12 [Samuraciclib (hydrochloride)] (10 µM) | inactive: 0 | inactive: 0 | inactive: 0 | inactive: 0 | inactive: 0 | inactive: 0 | inactive: 0 | inactive: 0 | inactive: 0 | inactive: 0
COc1c(Cl)cc2c([nH]c3cnccc32)c1NC(=O)c1cccnc1C (10 µM) | inactive: 0 | inactive: 0 | inactive: 0 | inactive: 0 | inactive: 0 | inactive: 0 | inactive: 0 | inactive: 0 | inactive: 0 | inactive: 0
Cc1c(C(=O)N2CCOc3ccc(-c4ccc(N)nc4)cc3C2)ccc(S(C)(=O)=O)c1F (10 µM) | inactive: 0 | inactive: 0 | inactive: 0 | inactive: 0 | inactive: 0 | inactive: 0 | inactive: 0 | inactive: 0 | inactive: 0 | inactive: 0

2 of the compounds above, as tab-separated lines:
SMILES	kinase-Nluc reporter destabilization hit call (ERN1)	kinase-Nluc reporter destabilization hit call (FGFR1)	kinase-Nluc reporter destabilization hit call (FGFR2)	kinase-Nluc reporter destabilization hit call (FGFR3)	kinase-Nluc reporter destabilization hit call (FGR)	kinase-Nluc reporter destabilization hit call (FLT3)	kinase-Nluc reporter destabilization hit call (FYN)	kinase-Nluc reporter destabilization hit call (GSK3A)	kinase-Nluc reporter destabilization hit call (HER2)	kinase-Nluc reporter destabilization hit call (INSRR)
CN(c1ncccc1CNc1nc(Nc2ccc3c(c2)CC(=O)N3)ncc1C(F)(F)F)S(C)(=O)=O (2.5 µM)	inactive: 0	inactive: 0	inactive: 0	inactive: 0	inactive: 0	inactive: 0	inactive: 0	inactive: 0	inactive: 0	inactive: 0
NC(=O)c1ccc(-c2nc(-c3ccccn3)c(-c3ccc4c(c3)OCO4)[nH]2)cc1 (10 µM)	inactive: 0	inactive: 0	inactive: 0	inactive: 0	inactive: 0	inactive: 0	inactive: 0	inactive: 0	inactive: 0	inactive: 0
